The values below are quoted from earlier work in patent US20220296594A1, “POTENTIATORS OF ANTIMICROBIAL AND/OR ANTIVIRAL AGENTS” (MASSACHUSETTS INSTITUTE OF TECHNOLOGY, priority 2019, published 2022).

The conditions of this data set: in vivo, cited from earlier work.

Structures are written as SMILES.

On to `Cc1cc(NS(=O)(=O)c2ccc(N)cc2)no1` [sulfamethoxazole, Sulfamethoxazole], for which the “bound to plasma proteins” value is recorded as “About 70%”. Besides, the “Tmax (time to reach maximum drug concentration in plasma)” value (po) was 1 to 4 h.
